Data: patent EP2848122A1, “NEW PESTICIDE INCLUSION COMPLEXES, CO[…] COMPLEXES AND THE USE THEREOF AS PESTICIDES” (priority 2012, dated 2013)
At least one read-out could not be matched to a standard name with certainty.

Assay: water solubility by ultraviolet (UV) spectrophotometry
Type: physicochemical
Conditions: Figure 1, increasing cyclodextrin concentration
Text: Figure 1: Diagram of a solubility study using ultraviolet (UV) spectrophotometry of Bendiocarb as the concentration of cyclodextrin increases. Figure 2: Graph of differential scanning thermogravimetry (DST) of Bifenthrin alone, cyclodextrin (CD) alone, physical mixture of the two, and inclusion complex formed (encapsulated). Figure 3: Curves of differential thermal analysis (DTA) and thermal gravimetric analysis (TGA) of Tetramethrin alone, cyclodextrin (CD) alone, physical mixture of the two, and different inclusion complexes formed according to methods 1 or 2 and with the indicated stechiometries 1:1 or 2:1. Figure 4: Spectra of Nuclear Magnetic Resonance (1 H NMR) of Acetamiprid alone (a), cyclodextrin (CD) alone (b) and formed inclusion complex (c). Figure 5: Scanning electron photographs (SEM) of the structural change of Tebuconazole once the inclusion complex with cyclodextrin is formed. Figure 6: X-ray diffractograms (XRD) of Imidacloprid alone, cyclodextrin (CD) alone, physical mixture of both and inclusion complex formed (encapsulation). Figure 7: Diagram of the three-dimensional structures of the Acetamiprid-cyclodextrin complex by formation of a single crystal. Figure 8: Structural modelling by means of the program MACROMODEL of the Acetamiprid-cyclodextrin dimer. Figure 9: Performance of the Bendiocarb microencapsulation reaction (DSC). […]

Compound: CNC(=O)Oc1cccc2c1OC(C)(C)O2 [Bendiocarb]
- water solubility when the concentration of cyclodextrin (mM) in the medium is increased: solubility is increased
